# Measured values taken from the supplement of paper PMC8256030.
# Where “and” joins values, the source holds several entries; their conditions need not be identical. Identical values can stand only once. The list shows a part of the results. Single values are uncertain here, since repeats match poorly.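 HEK293T cells were given each compound shortly before transfection with a reporter in which red mCherry is followed by the SARS-CoV-2 frameshift element and then GFP in the −1 frame, so GFP appears only after frameshifting.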
# System: HEK293T
# Assay: percent viability (nuclei count) relative to control; higher = more viable cells
# Conditions: 10 µM; 24 h
row,Compound,percent viability
1,C=CC(N)CCC(=O)O (stereo not given) [vigabatrin],238%
2,Cc1cccc(C(=O)O)c1O,229%
3,C[C@@H](O[C@H]1OCCN(Cc2n[nH]c(=O)[nH]2)[C@H]1c1ccc(F)cc1)c1cc(C(F)(F)F)cc(C(F)(F)F)c1 [Emend],253%
4,CCCN(CCc1cccs1)[C@H]1CCc2c(O)cccc2C1 [Neupro],186%
5,CCN1CCC[C@H]1CNC(=O)c1cc(S(N)(=O)=O)ccc1OC [levosulpiride],208%
6,O=c1n(CCCN2CCN(c3cccc(Cl)c3)CC2)nc2ccccn12 [trazodone],142%
7,CC(C)NCC(O)c1cc(O)cc(O)c1 (stereo not given) [orciprenaline],209%
8,C=C1CCN([C@H](C)[C@](O)(Cn2cncn2)c2ccc(F)cc2F)CC1 [Efinaconazole],233%
9,Cc1ncsc1CCCCl [cloprothiazole],132%
10,OCCN1CCN(CC/C=C2/c3ccccc3Sc3ccc(Cl)cc32)CC1 [zuclopenthixol],559%
11,CCc1cccc2c3c([nH]c12)C(CC)(CC(=O)O)OCC3 (stereo not given) [etodolac],157%
12,CC(=O)OCC(=O)[C@@]1(O)CC[C@H]2[C@@H]3CCC4=CC(=O)CC[C@]4(C)[C@H]3C(=O)C[C@@]21C [Cortisone acetate],281%
13,C/C(=C\C(=O)OCCCCCCCCC(=O)O)C[C@@H]1OC[C@H](C[C@@H]2O[C@H]2[C@@H](C)[C@H](C)O)[C@@H](O)[C@H]1O [mupirocin],140% and 269%
14,CC(=O)c1ccc2c(c1)N(CCCN1CCN(CCO)CC1)c1ccccc1S2,134%
15,Nc1nc2ccc(OC(F)(F)F)cc2s1 [riluzole],113%
16,O=c1[nH]c2cc(Cl)c(Cl)c([N+](=O)[O-])c2[nH]c1=O [licostinel],174%
17,Nc1ncnc2c1ncn2[C@@H]1O[C@H](COP(=O)(O)OP(=O)(O)OP(=O)(O)O)[C@@H](O)[C@H]1O [Adephos],264%
18,NC(=O)[C@H]1O[C@@H](O)[C@H](O)[C@@H](O)[C@@H]1O [glucuronamide],162%
19,COC(=O)c1ccc(=O)c2nc3c(=CO)c(O)cc(=O)c3[nH]c12 [Lomofungin],249%
20,O=C1N=C(N2CCOCC2)CN1c1ccc(Cl)cc1 [imepitoin],196%

row,Compound,percent viability
1,CN1CCN(C2Cc3ccccc3Sc3ccc(Cl)cc32)CC1 (stereo not given) [clorotepine],190%
2,N[C@H](Cc1cc(I)c(Oc2cc(I)c(O)c(I)c2)c(I)c1)C(=O)O [Choloxin],247%
3,C/N=C(/NC)NCc1ccc(OC)cc1 [meobentine],196%
4,O=C(O)CCC(=O)c1ccc2oc3ccccc3c2c1 [furobufen],190%
5,N#CC(c1ccc(Cl)cc1)c1c(Cl)cc(-n2ncc(=O)[nH]c2=O)cc1Cl (stereo not given) [diclazuril],157%
6,C(=C\c1ccccc1)/CN1CCN(C(c2ccccc2)c2ccccc2)CC1 [Stugeron],140%
7,O=C1C(N2CCCCC2)CCN1c1ccccc1 (stereo not given) [felipyrine],284%
8,CC(=O)Nc1ccc(CC(=O)O)cc1 [actarit],349% and 223%
9,CN[C@@H]1[C@H](O)[C@H](NC)[C@H]2O[C@@]3(O)C(=O)C[C@@H](C)O[C@H]3O[C@@H]2[C@H]1O [spectinomycin],102%
10,CC(=O)Nc1ccc(OC(=O)c2ccccc2OC(C)=O)cc1 [benorilate],128%
11,C[C@]12CC[C@@H](O)C[C@@H]1CC[C@H]1[C@@H]3CC[C@H](C(=O)CO)[C@@]3(C)CC(=O)[C@@H]12 [alfadolone],302%
12,C[C@H]1O[C@@H](O[C@H]2[C@@H](O)C[C@H](O[C@H]3[C@@H](O)C[C@H](O[C@H]4CC[C@@]5(C)[C@H](CC[C@@H]6[C@@H]5CC[C@]5(C)[C@@H](C7=CC(=O)OC7)CC[C@]65O)C4)O[C@@H]3C)O[C@@H]2C)C[C@H](O)[C@@H]1O [Digitoxin],5.17%
13,CCN1CCN(C(=O)N[C@@H](C(=O)N[C@@H]2C(=O)N3C(C(=O)O)=C(CSc4nnnn4C)CS[C@H]23)c2ccc(O)cc2)C(=O)C1=O [Cefobid],202% and 347%
14,COc1cc(/C=C/C(=O)N2CCN(CC(=O)NC(C)C)CC2)cc(OC)c1OC [cinpropazide],189%
15,N#C[C@@H]1C[C@@H]2C[C@@H]2N1C(=O)[C@@H](N)C12CC3CC(CC(O)(C3)C1)C2,130%
16,O=C(Nc1ncc([N+](=O)[O-])s1)c1cccs1 [tenonitrozole],201%
17,O=C1c2ccccc2C(=O)C1c1ccccc1 [phenindione],422%
18,COC(=O)Nc1nc2cc([S+]([O-])c3ccccc3)ccc2[nH]1 (stereo not given) [Oxfendazole],114%
19,CCOc1ccc(/C=C2\NCCc3cc(OCC)c(OCC)cc32)cc1OCC [Drotin],135%
20,CCCCCCCCCCCCCCCC(=O)NCCO [palmidrol],250%
